In general, pIC50 refers to the IC50 on a negative log10 scale, so that one unit is a factor of ten.

Chains of the proteins cited; added tags and fusions are not shown. Residues count along the entry.
UniProt P08581, 1078-1345 limits assumed: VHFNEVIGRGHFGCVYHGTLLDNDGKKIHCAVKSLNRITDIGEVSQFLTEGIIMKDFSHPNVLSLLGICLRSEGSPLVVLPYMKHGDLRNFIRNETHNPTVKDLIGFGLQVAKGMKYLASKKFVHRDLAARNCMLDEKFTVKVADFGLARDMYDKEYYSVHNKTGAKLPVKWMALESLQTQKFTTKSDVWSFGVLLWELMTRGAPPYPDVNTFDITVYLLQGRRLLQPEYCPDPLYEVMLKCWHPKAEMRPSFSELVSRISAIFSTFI

pIC50: −log10 of the molar value. The structures given here were assigned with low confidence; some may be wrong.

The results in this text go back to US20060009493A1, “Indolinone hydrazides as c-Met inhibitors” (Sugen, Inc., priority 2003, published 2006).

The assay addresses GST fusion protein containing the Met kinase domain (Homo sapiens, UniProt P08581). Put plainly: MET Transphosphorylation Assay (ELISA, poly(Glu,Tyr) 4:1 substrate). The assay is classed as biochemical. Conditions: met transphosphorylation of poly(glutamic acid:tyrosine 4:1) substrate, two values in a cell separated by '/'. (In general: In an ELISA, binding on a coated surface is turned into a signal by an enzyme label.)

In turn, `CC(C(=O)N/N=C1\C(=O)N(CCN2CCCCC2)c2ccc(OCCN3CCCCC3)c(Cl)c21)c1ccc(F)cc1` (centres unmarked) gave a pIC50 of less than 4.70.

The compound `Cc1cc(CCN2CCCC2)c(C)c2c1NC(=O)C2=NNC(=O)C(C)c1ccc(O)cc1` (centres unmarked) had a pIC50 (tested form: HCl) of 6.70.
